PubChem BioAssay AID1259308 | NCATS – 2017
Screen: 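Genes whose loss raises luciferase production in HEK293 cells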 (primary screen). Cells: human HEK293 embryonic kidney cells stably expressing firefly luciferase (HEK-CMV-Luc2-Hygro). Reagent: single siRNA against human genes, 0.8 pmol siRNA per well. Time to read-out: 72 h. Measured: 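Reporter luminescence and viable-cell signal on separate replicate plates, given as percent of non-targeting control and median/MAD z-scores, plus per-cell luciferase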. Direction: total luciferase, z-score: higher = more reporter protein produced. Call rule: 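Active when the median/MAD z-score for overall luciferase is greater than 3; a gene was taken forward for validation with new siRNAs if at least two of its three siRNAs passed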. Calls: active = raised luciferase; inactive = no rise.
Here is a random part of about 59,000 reagents tested. Of all reagents, about 1,510 (2.6%) are marked active. 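Calls use total luciferase alone and ignore viability, so some active siRNAs may act by altering cell number.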 A number with no mark means an inactive call. The numbers tell different reagents against one gene apart. Not all columns of the deposit are shown. Reagent sequences are not shown.

gene	reagent	total luciferase, z-score
CCNB1 (GeneID 891)	1	-0.901
CCNB1 (GeneID 891)	2	-0.244
CCNB1 (GeneID 891)	3	-0.388
DELE1 (GeneID 9812)	1	0.756
DELE1 (GeneID 9812)	2	3.27 (active)
DELE1 (GeneID 9812)	3	1.27
C11orf16 (GeneID 56673)	1	0.729
C11orf16 (GeneID 56673)	2	-0.281
C11orf16 (GeneID 56673)	3	-0.623
ZNF510 (GeneID 22869)	1	0.0132
ZNF510 (GeneID 22869)	2	0.0634
ZNF510 (GeneID 22869)	3	0.0761
NFIB (GeneID 4781)	1	-0.798
NFIB (GeneID 4781)	2	0.251
NFIB (GeneID 4781)	3	-1.24
TOB2 (GeneID 10766)	1	0.196
TOB2 (GeneID 10766)	2	-2.06
TOB2 (GeneID 10766)	3	-0.612
CCL19 (GeneID 6363)	1	0.899
CCL19 (GeneID 6363)	2	2.33
CCL19 (GeneID 6363)	3	0.406
LBP (GeneID 3929)	1	-0.402
LBP (GeneID 3929)	2	1.15
LBP (GeneID 3929)	3	1.07
PSMB1 (GeneID 5689)	1	-0.893
PSMB1 (GeneID 5689)	2	3.54 (active)
PSMB1 (GeneID 5689)	3	0.863
ACCSL (GeneID 390110)	1	-1.94
ACCSL (GeneID 390110)	2	-0.5
ACCSL (GeneID 390110)	3	-0.667
LPO (GeneID 4025)	1	0.298
LPO (GeneID 4025)	2	-1.4
LPO (GeneID 4025)	3	1.73
NDUFB3 (GeneID 4709)	1	-0.422
NDUFB3 (GeneID 4709)	2	-0.891
NDUFB3 (GeneID 4709)	3	-1.05
RAB15 (GeneID 376267)	1	3.11 (active)
RAB15 (GeneID 376267)	2	0.388
RAB15 (GeneID 376267)	3	-0.47
GMPPB (GeneID 29925)	1	0.523
GMPPB (GeneID 29925)	2	-1.71
GMPPB (GeneID 29925)	3	-0.432

Part of the list above, reformatted.
{"gene":"TOB2 (GeneID 10766)","reagent":3,"total luciferase, z-score":-0.612}
{"gene":"CCL19 (GeneID 6363)","reagent":1,"total luciferase, z-score":0.899}
{"gene":"CCL19 (GeneID 6363)","reagent":2,"total luciferase, z-score":2.33}
{"gene":"CCL19 (GeneID 6363)","reagent":3,"total luciferase, z-score":0.406}
{"gene":"LBP (GeneID 3929)","reagent":1,"total luciferase, z-score":-0.402}
{"gene":"LBP (GeneID 3929)","reagent":2,"total luciferase, z-score":1.15}
{"gene":"LBP (GeneID 3929)","reagent":3,"total luciferase, z-score":1.07}
{"gene":"PSMB1 (GeneID 5689)","reagent":1,"total luciferase, z-score":-0.893}
{"gene":"PSMB1 (GeneID 5689)","reagent":2,"total luciferase, z-score":"3.54 (active)"}
{"gene":"PSMB1 (GeneID 5689)","reagent":3,"total luciferase, z-score":0.863}
{"gene":"ACCSL (GeneID 390110)","reagent":1,"total luciferase, z-score":-1.94}

More results:
gene	reagent	total luciferase, z-score
HOXD13 (GeneID 3239)	1	0.0879
HOXD13 (GeneID 3239)	2	2.08
HOXD13 (GeneID 3239)	3	0.527
KLHL41 (GeneID 10324)	1	1.06
KLHL41 (GeneID 10324)	2	0.365
KLHL41 (GeneID 10324)	3	-0.579
DDX42 (GeneID 11325)	1	1.55
DDX42 (GeneID 11325)	2	-0.96
DDX42 (GeneID 11325)	3	0.689
ZNF384 (GeneID 171017)	1	-0.0171
ZNF384 (GeneID 171017)	2	0.888
ZNF384 (GeneID 171017)	3	-1.35
EXTL1 (GeneID 2134)	1	0.289
EXTL1 (GeneID 2134)	2	1.14
EXTL1 (GeneID 2134)	3	-2.09
ISX (GeneID 91464)	1	-0.586
ISX (GeneID 91464)	2	0.518
ISX (GeneID 91464)	3	0.295
PDGFB (GeneID 5155)	1	0.48
PDGFB (GeneID 5155)	2	-1.06
PDGFB (GeneID 5155)	3	2.07
TTLL12 (GeneID 23170)	1	-0.522
TTLL12 (GeneID 23170)	2	0.0372
TTLL12 (GeneID 23170)	3	0.168
TGIF1 (GeneID 7050)	1	2.53
TGIF1 (GeneID 7050)	2	-1.17
TGIF1 (GeneID 7050)	3	1
SPATA9 (GeneID 83890)	1	0.704
SPATA9 (GeneID 83890)	2	0.721
SPATA9 (GeneID 83890)	3	0.42
RPSAP19 (GeneID 730029)	1	-0.0408
RPSAP19 (GeneID 730029)	2	-3.19
RPSAP19 (GeneID 730029)	3	-2.25
